PubChem BioAssay AID1259405 | NCATS, 2018

Assay: 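Silenced genes that increase secreted GFP made by CHO cells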 (primary screen)
Cell system: Chinese hamster CHO-K1 ovary cells with stable secreted eGFP expression
Knock-down reagent: single siRNA against mouse genes, 0.8 pmol siRNA per well (2 µl of 400 nM stock)
Timing: 3 days
Detection: 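Per-well intracellular GFP measured by laser scanning cytometry, plus viability from ATP luminescence, each relative to plate median of non-targeting control wells, in %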
Scale: GFP, % of control: higher = more GFP per well, higher productivity; viability (ATP), % of control: higher = more viable cells (more ATP)
Call rule: 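Called active when intracellular GFP, relative to negative control, is at or above 120%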
In all, the deposit lists about 50,000 reagents; shown is an unselected part. Of all reagents, about 4,000 (8%) were called active. 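Mouse siRNA library applied to hamster cells; one well for each siRNA.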 Unmarked entries are inactive. Reagents against one gene are numbered here.

Knock-down of Celf3 #1 resulted in: GFP, % of control 122 (active); viability (ATP), % of control 111.
For Celf3 #2, the entry reads GFP, % of control 91.6; viability (ATP), % of control 99.2.
Npy #1 showed GFP, % of control 66.4; viability (ATP), % of control 62.3.
Depletion of Npy #2 resulted in: GFP, % of control 140 (active); viability (ATP), % of control 111.
With knock-down of Npy #3, the screen gave GFP, % of control 70.7; viability (ATP), % of control 68.1.
Against Pdk3 the deposit lists GFP, % of control 72.2; viability (ATP), % of control 60.9.
Depletion of Purb #1 gave: GFP, % of control 83.8; viability (ATP), % of control 55.5.
Purb #2 showed GFP, % of control 96.2; viability (ATP), % of control 61.6.
Against Purb #3 the deposit lists GFP, % of control 65.8; viability (ATP), % of control 62.7.
With knock-down of Stx16 #1, the screen gave GFP, % of control 121 (active); viability (ATP), % of control 123.
For Stx16 #2 the deposit lists GFP, % of control 79.2; viability (ATP), % of control 86.1.
With knock-down of Nr2c2 #1, the record shows GFP, % of control 101; viability (ATP), % of control 88.6.
For Nr2c2 #2, the entry reads GFP, % of control 65.9; viability (ATP), % of control 71.4.
Nr2c2 #3 showed GFP, % of control 121 (active); viability (ATP), % of control 64.6.
Against Mdm4 #1, the entry reads GFP, % of control 84; viability (ATP), % of control 78.1.
Silencing of Mdm4 #2 gave: GFP, % of control 92.6; viability (ATP), % of control 55.6.
Depletion of Mdm4 #3 resulted in: GFP, % of control 70.6; viability (ATP), % of control 95.8.

2 entries already listed, ordered by “GFP, % of control”, ascending:
Purb #1: GFP, % of control = 83.8; viability (ATP), % of control = 55.5
Purb #2: GFP, % of control = 96.2; viability (ATP), % of control = 61.6
